According to PubChem BioAssay AID256 (DTP/NCI, 2004):
The list is a part of this screen's results and no random one: it gathers tests that were run many times, whatever their T/C, doses with no T/C, and many T/C values between a quarter and a half above the control. Further doses and runs are listed elsewhere. T/C gives the treated animals as a percentage of the vehicle group. Some entries give survivors of the animals treated and no T/C: the source files T/C as zero there, which appears to mark a toxic dose or a test without result, not a measured value. Some doses without a T/C left all or most animals alive at the check, yet need not have been tolerated: survival well below the control is almost never listed, so the zero probably covers shortened survival too. Counts of survivors are from the toxicity check (mostly the fifth day) where no day follows; animals may have died later. Schedule codes are those of the source, taken here to give the interval after Q, in days (D) or hours (H), and the number of doses after X. Where survival is the endpoint, the PubChem record calls one and a half times the control and up active, and a quarter to a half above the control has no call in these data; cut-offs in other NCI protocols can differ. Counts like (3×) say how often a value occurs here. Some T/C values are followed by the survivors on the day toxicity was checked, most often the fifth; where none is given, no animal had died by that day. Some entries hold several experiments; the results are listed from low to high.

System: CD2F1 mice, L1210 leukemia ip, survival T/C
Test: NCI In Vivo Anticancer Drug Screen. Data for tumor model L1210 Leukemia (intraperitoneal) in CD2F1 (CDF1) mice
Conditions: T/C endpoint: mean survival time, higher T/C = longer survival
Outline: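 Each value reflects a quotient of treated over vehicle control outcomes in mice with a transplanted tumor.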

## COc1cccc2c1C(=O)c1c(O)c3c(c(O)c1C2=O)C[C@@](O)(C(=O)CO)C[C@@H]3OC1CC(N)C(O)C(C)O1 (stereo not given in full)
dose: 0.19 mg/kg/injection, schedule: Q01DX009 (ip), vehicle: saline
  T/C: 128 % of control
dose: 0.25 mg/kg/injection, schedule: Q01DX009 (ip), vehicle: saline, evaluated on day 30
  T/C: 103, 111, 114, 117, 122, 124 (2×), 125, 127 % of control
dose: 0.25 mg/kg/injection, schedule: Q01DX009 (ip), vehicle: saline, evaluated on day 35
  T/C: 126 % of control
dose: 0.25 mg/kg/injection, schedule: Q01DX009 (ip), vehicle: saline, evaluated on day 45
  T/C: 109 % of control
dose: 0.25 mg/kg/injection, schedule: Q01DX009 (ip), vehicle: saline, evaluated on day 60
  T/C: 112 and 129 % of control
dose: 0.25 mg/kg/injection, schedule: Q01DX009 (ip), vehicle: water, evaluated on day 30
  T/C: 135 % of control
dose: 0.25 mg/kg/injection, schedule: Q01DX009 (ip), vehicle: water, evaluated on day 35
  T/C: 108 % of control
dose: 0.25 mg/kg/injection, schedule: Q01DX009 (ip), vehicle: water, evaluated on day 45
  T/C: 113, 115, 117 (2×), 121 (3×), 124 % of control
dose: 0.31 mg/kg/injection, schedule: Q04DX003 (ip), vehicle: water
  T/C: 126 % of control
dose: 0.39 mg/kg/injection, schedule: Q01DX009 (ip), vehicle: saline
  T/C: 135 % of control
dose: 0.39 mg/kg/injection, schedule: Q01DX009 (ip), vehicle: water, evaluated on day 30
  T/C: 129 % of control
dose: 0.39 mg/kg/injection, schedule: Q01DX009 (ip), vehicle: water, evaluated on day 45
  T/C: 134 % of control
dose: 0.4 mg/kg/injection, schedule: Q01DX009 (ip), vehicle: dextrose
  T/C: 129 % of control
dose: 0.43 mg/kg/injection, schedule: Q01DX009 (ip), vehicle: saline
  T/C: 134 % of control
dose: 0.5 mg/kg/injection, schedule: Q01DX005 (ip), vehicle: water, evaluated on day 30
  T/C: 133 % of control
dose: 0.5 mg/kg/injection, schedule: Q01DX005 (ip), vehicle: water, evaluated on day 45
  T/C: 129 % of control (2×)
dose: 0.5 mg/kg/injection, schedule: Q01DX009 (ip), vehicle: saline, evaluated on day 30
  T/C: 113, 121, 122, 125, 129, 131, 136 (2×), 137, 143 % of control
dose: 0.5 mg/kg/injection, schedule: Q01DX009 (ip), vehicle: saline, evaluated on day 35
  T/C: 134 % of control
dose: 0.5 mg/kg/injection, schedule: Q01DX009 (ip), vehicle: saline, evaluated on day 45
  T/C: 119 % of control
dose: 0.5 mg/kg/injection, schedule: Q01DX009 (ip), vehicle: saline, evaluated on day 60
  T/C: 138 and 140 % of control
dose: 0.5 mg/kg/injection, schedule: Q01DX009 (ip), vehicle: water, evaluated on day 5
  T/C: 140 % of control
dose: 0.5 mg/kg/injection, schedule: Q01DX009 (ip), vehicle: water, evaluated on day 30
  T/C: 121 and 145 % of control [5 of 6 alive]
dose: 0.5 mg/kg/injection, schedule: Q01DX009 (ip), vehicle: water, evaluated on day 35
  T/C: 123 % of control
dose: 0.5 mg/kg/injection, schedule: Q01DX009 (ip), vehicle: water, evaluated on day 45
  T/C: 117, 119, 123, 128, 129, 131, 136, 137 % of control [5 of 6 alive]
dose: 0.65 mg/kg/injection, schedule: Q01DX009 (ip), vehicle: saline
  T/C: 136 % of control
dose: 0.72 mg/kg/injection, schedule: Q01DX009 (ip), vehicle: saline
  T/C: 130 % of control
dose: 0.75 mg/kg/injection, schedule: Q01DX009 (ip), vehicle: saline
  T/C: 147 % of control
dose: 0.78 mg/kg/injection, schedule: Q01DX009 (ip), vehicle: water, evaluated on day 30
  T/C: 128 and 129 % of control
dose: 0.78 mg/kg/injection, schedule: Q01DX009 (ip), vehicle: water, evaluated on day 45
  T/C: 130 and 136 % of control
dose: 0.79 mg/kg/injection, schedule: Q01DX009 (ip), vehicle: dextrose
  T/C: 139 % of control
dose: 1.0 mg/kg/injection, schedule: Q01DX005 (ip), vehicle: water, evaluated on day 30
  T/C: 139 % of control
dose: 1.0 mg/kg/injection, schedule: Q01DX005 (ip), vehicle: water, evaluated on day 45
  T/C: 137 % of control
dose: 1.0 mg/kg/injection, schedule: Q01DX009 (ip), vehicle: saline, evaluated on day 30
  T/C: 113, 123, 128, 131, 134, 135, 140, 141, 142, 200 % of control
dose: 1.0 mg/kg/injection, schedule: Q01DX009 (ip), vehicle: saline, evaluated on day 35
  T/C: 176 % of control
dose: 1.0 mg/kg/injection, schedule: Q01DX009 (ip), vehicle: saline, evaluated on day 45
  T/C: 138 % of control
dose: 1.0 mg/kg/injection, schedule: Q01DX009 (ip), vehicle: saline, evaluated on day 60
  T/C: 141 and 143 % of control
dose: 1.0 mg/kg/injection, schedule: Q01DX009 (ip), vehicle: water, evaluated on day 5
  T/C: 146 % of control
dose: 1.0 mg/kg/injection, schedule: Q01DX009 (ip), vehicle: water, evaluated on day 30
  T/C: 134 and 157 % of control
dose: 1.0 mg/kg/injection, schedule: Q01DX009 (ip), vehicle: water, evaluated on day 35
  T/C: 142 % of control
dose: 1.0 mg/kg/injection, schedule: Q01DX009 (ip), vehicle: water, evaluated on day 45
  T/C: 122, 129, 134, 135, 142, 146, 152, 168 % of control
dose: 1.0 mg/kg/injection, schedule: Q01DX009 (ip), vehicle: water, run until all animals had died
  T/C: 140 % of control
dose: 1.08 mg/kg/injection, schedule: Q01DX009 (ip), vehicle: saline
  T/C: 139 % of control
dose: 1.2 mg/kg/injection, schedule: Q01DX009 (ip), vehicle: saline
  T/C: 130 % of control
dose: 1.25 mg/kg/injection, schedule: Q04DX003 (ip), vehicle: saline
  T/C: 128 % of control
dose: 1.25 mg/kg/injection, schedule: Q04DX003 (ip), vehicle: water, evaluated on day 30
  T/C: 128 % of control
dose: 1.25 mg/kg/injection, schedule: Q04DX003 (ip), vehicle: water, evaluated on day 60
  T/C: 136 % of control
dose: 1.5 mg/kg/injection, schedule: Q01DX009 (ip), vehicle: saline
  T/C: 130 [5 of 6 alive] and 139 % of control
dose: 1.56 mg/kg/injection, schedule: Q01DX009 (ip), vehicle: dextrose
  T/C: 141 % of control
dose: 1.56 mg/kg/injection, schedule: Q01DX009 (ip), vehicle: water
  T/C: 143 % of control
dose: 1.8 mg/kg/injection, schedule: Q01DX009 (ip), vehicle: saline
  T/C: 143 % of control
dose: 1.94 mg/kg/injection, schedule: Q01DX001 (ip), vehicle: saline, evaluated on day 30
  T/C: 132 % of control
dose: 1.94 mg/kg/injection, schedule: Q01DX001 (ip), vehicle: saline, evaluated on day 45
  T/C: 130 % of control
dose: 2.0 mg/kg/injection, schedule: Q01DX005 (ip), vehicle: water
  T/C: 137 % of control
dose: 2.0 mg/kg/injection, schedule: Q01DX009 (ip), vehicle: saline, evaluated on day 30
  T/C: 120, 125, 127, 129, 140, 141, 142, 146, 162, 222, 250 % of control
dose: 2.0 mg/kg/injection, schedule: Q01DX009 (ip), vehicle: saline, evaluated on day 35
  T/C: 120 % of control
dose: 2.0 mg/kg/injection, schedule: Q01DX009 (ip), vehicle: saline, evaluated on day 45
  T/C: 208 and 311 % of control
dose: 2.0 mg/kg/injection, schedule: Q01DX009 (ip), vehicle: saline, evaluated on day 60
  T/C: 131 and 400 % of control
dose: 2.0 mg/kg/injection, schedule: Q01DX009 (ip), vehicle: water, evaluated on day 5
  T/C: 160 % of control
dose: 2.0 mg/kg/injection, schedule: Q01DX009 (ip), vehicle: water, evaluated on day 30
  T/C: 135 and 177 % of control
dose: 2.0 mg/kg/injection, schedule: Q01DX009 (ip), vehicle: water, evaluated on day 35
  T/C: 159 % of control
dose: 2.0 mg/kg/injection, schedule: Q01DX009 (ip), vehicle: water, evaluated on day 45
  T/C: 108, 125, 135, 138, 140, 141, 147, 362 % of control
dose: 2.5 mg/kg/injection, schedule: Q01DX001 (ip), vehicle: saline, evaluated on day 5
  T/C: 130 % of control
dose: 2.5 mg/kg/injection, schedule: Q01DX001 (ip), vehicle: saline, evaluated on day 45
  T/C: 130 % of control
dose: 2.5 mg/kg/injection, schedule: Q01DX001 (ip), vehicle: saline, evaluated on day 60
  T/C: 129 % of control
dose: 2.5 mg/kg/injection, schedule: Q01DX001 (ip), vehicle: water
  T/C: 126 and 130 % of control
dose: 2.5 mg/kg/injection, schedule: Q04DX003 (ip), vehicle: saline
  T/C: 142 % of control
dose: 2.5 mg/kg/injection, schedule: Q04DX003 (ip), vehicle: water
  T/C: 137 % of control
dose: 3.0 mg/kg/injection, schedule: Q01DX009 (ip), vehicle: saline
  T/C: 126 and 130 % of control
dose: 3.0 mg/kg/injection, schedule: Q04DX003 (ip), vehicle: saline
  T/C: 143 % of control
dose: 3.13 mg/kg/injection, schedule: Q01DX009 (ip), vehicle: water
  T/C: 125 % of control
dose: 3.24 mg/kg/injection, schedule: Q01DX001 (ip), vehicle: saline, evaluated on day 30
  T/C: 128 % of control
dose: 3.24 mg/kg/injection, schedule: Q01DX001 (ip), vehicle: saline, evaluated on day 45
  T/C: 125 % of control
dose: 3.33 mg/kg/injection, schedule: Q01DX009 (ip), vehicle: saline
  T/C: 141 % of control
dose: 4.0 mg/kg/injection, schedule: Q01DX005 (ip), vehicle: water, evaluated on day 30
  T/C: 147 % of control
dose: 4.0 mg/kg/injection, schedule: Q01DX005 (ip), vehicle: water, evaluated on day 45
  T/C: 127 % of control
dose: 4.0 mg/kg/injection, schedule: Q01DX005 (ip), vehicle: water
  survivor count: 6 of 6
dose: 4.0 mg/kg/injection, schedule: Q01DX009 (ip), vehicle: saline, evaluated on day 30
  T/C: 89, 93, 97, 104, 109, 111, 119, 122, 152 % of control
dose: 4.0 mg/kg/injection, schedule: Q01DX009 (ip), vehicle: saline, evaluated on day 35
  T/C: 86 % of control
dose: 4.0 mg/kg/injection, schedule: Q01DX009 (ip), vehicle: saline, evaluated on day 45
  T/C: 95 % of control
dose: 4.0 mg/kg/injection, schedule: Q01DX009 (ip), vehicle: saline, evaluated on day 60
  T/C: 130 and 146 % of control
dose: 4.0 mg/kg/injection, schedule: Q01DX009 (ip), vehicle: saline
  survivor count: 6 of 6
dose: 4.0 mg/kg/injection, schedule: Q01DX009 (ip), vehicle: water, evaluated on day 5
  T/C: 119 % of control
dose: 4.0 mg/kg/injection, schedule: Q01DX009 (ip), vehicle: water, evaluated on day 30
  T/C: 86 and 140 % of control
dose: 4.0 mg/kg/injection, schedule: Q01DX009 (ip), vehicle: water, evaluated on day 35
  T/C: 92 % of control
dose: 4.0 mg/kg/injection, schedule: Q01DX009 (ip), vehicle: water, evaluated on day 45
  T/C: 86, 88, 95, 119, 176 % of control
